This note sets out measurements from patent US20120284812A1, “Herbicide-Tolerant Plants” (BASF AGROCHEMICAL PRODUCTS, B.V., priority 2009, published 2012).

The data set deals with rice calli. In words: Tissue culture selection of herbicide-tolerant mutant rice lines. It counts as cell-based, Oryza sativa.
The mark [1] stands for this setting: Total over genotypes for the selection agent.
Setting [2] is: genotype Indica 1, mutants per calli.

`CCCC(=NOCC)C1=C(O)CC(C2CCCSC2)CC1=O` (stereo not shown) [cycloxydim]: the Rate under setting [1] was 0.203%; the Rate under setting [2] is 0.161%; the Rate (genotype Koshi, mutants per calli) is recorded as 0.333%; the Rate (genotype T309, mutants per calli) amounted to 0.444%. In addition, the “mutant rate relative to previous reports using sethoxydim selection” value (versus maize and seashore paspalum reports) is around 10 fold.

In turn, `CCC/C(=N\OCC)C1=C(O)CC(CC(C)SCC)CC1=O` (stereo not shown) [sethoxydim] gave a Rate under setting [1] of 0.068% and a Rate under setting [2] of 0.114%.
